From PMC6591170 come the findings set out here.

This data set concerns human alpha-thrombin (Homo sapiens). The data set is described as follows: ITC. The conditions noted are these: 3'-glycerol-3' linker joins the two listed segments covalently (both written 5' to 3'); one molecule, not a duplex; ITC in PBS (10 mM phosphate, 2.7 mM KCl, 137 mM NaCl), pH 7.4, 22 °C; ODN 25 or 100 µM into thrombin 2.5 or 10 µM; commercial protein; folded or branched DNA; letters put together from the description.

The exact form of at least one protein or probe is not confirmed.

As for GGTTGGTGTGGTTGG / GGTTGGTGTGGTTGG [Gly], the dissociation constant Kd stood at 0.015 µM. With “GGTTGGTGTGGTTGGA / GGTTGGTGTGGTTGGA [AGlyA]”, the Kd worked out at 0.005 µM.
